No constants are given. Whether binding was seen depends on the method and setting. In cells and extracts the contact can be indirect. Here binding means that the protein was enriched with, or labelled near, the bait; the list need not be complete. Where a sequence is shown, tags or fusion partners need not be part of it.
Target: T1, FLAG-HA tagged ARD1 (human) (UniProt P41227)
T1 sequence: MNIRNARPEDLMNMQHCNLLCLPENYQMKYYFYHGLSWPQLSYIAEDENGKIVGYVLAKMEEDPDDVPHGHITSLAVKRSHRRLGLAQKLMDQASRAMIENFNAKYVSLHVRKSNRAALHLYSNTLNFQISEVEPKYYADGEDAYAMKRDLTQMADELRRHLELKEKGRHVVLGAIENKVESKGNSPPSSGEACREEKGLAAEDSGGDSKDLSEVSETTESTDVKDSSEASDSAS
Experiment: affinity purification with mass spectrometry; FLAG-HA tagged ARD1 in HEK293T; anti-M2 resin, elution by 3xFLAG peptide, second precipitation with anti-HA antibody; SDS-PAGE and silver staining

The chains behind the UniProt entries cited, without tags or fusion partners.
UniProt P0DMV8: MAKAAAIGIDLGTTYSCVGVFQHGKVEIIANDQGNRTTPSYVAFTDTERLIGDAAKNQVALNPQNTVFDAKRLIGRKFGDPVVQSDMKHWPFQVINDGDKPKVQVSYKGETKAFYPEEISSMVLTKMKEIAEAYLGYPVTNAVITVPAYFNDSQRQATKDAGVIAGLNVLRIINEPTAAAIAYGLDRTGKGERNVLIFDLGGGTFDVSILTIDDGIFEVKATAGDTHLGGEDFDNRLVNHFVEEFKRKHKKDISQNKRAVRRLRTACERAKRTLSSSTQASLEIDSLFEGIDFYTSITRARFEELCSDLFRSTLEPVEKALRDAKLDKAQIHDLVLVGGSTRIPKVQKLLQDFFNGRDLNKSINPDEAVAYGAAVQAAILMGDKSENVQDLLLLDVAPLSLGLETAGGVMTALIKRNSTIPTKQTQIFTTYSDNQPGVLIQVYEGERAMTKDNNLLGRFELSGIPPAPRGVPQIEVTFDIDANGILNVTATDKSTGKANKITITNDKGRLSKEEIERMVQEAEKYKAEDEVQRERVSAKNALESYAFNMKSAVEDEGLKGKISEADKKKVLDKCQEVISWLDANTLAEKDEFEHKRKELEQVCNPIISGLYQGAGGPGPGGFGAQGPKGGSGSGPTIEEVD

“Hsp70 (Hsp72/HSPA1A), endogenous (from UniProt P0DMV8 1-641)” was tested, and the binding was “binds”.

Reference: PMC5059642
